Reference: PubChem BioAssay AID1224830 (NIAID, 2016)
Purpose: 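Host factors that control LPS-induced TNF expression in human macrophages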 (primary screen). Cell system: human THP-1 monocytic leukaemia cells, TNF dual-luciferase reporter clone, PMA-differentiated to macrophage-like cells. Reagents: siRNA pool against human genes, 50 nM. Timing: LPS for 4 h, given about 3 days after siRNA transfection. Treatment: bacterial LPS (TLR4 ligand), 10 ng/ml. Measured: 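TNF firefly reporter luminescence divided by renilla, normalised to the plate median, then turned into a robust z-score for each replicate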. Reading the numbers: TNF reporter robust z-score: higher = stronger TNF reporter response to LPS. Rule for the call: 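a well is active when its z-score exceeds 2.8 or falls below -1.5; control wells carry no call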.
The whole screen tested about 18,000 reagents; below is a part drawn at random. Over the whole deposit, about 2,900 (16%) are marked active. 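Calls are made per well; low scores hint the gene aids the LPS response, high scores that it dampens it.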 Repeated entries: four replicate wells of each siRNA pool.

The first 4 entries, ahead of the listing:
ETS2 (ETS proto-oncogene 2, transcription factor) → TNF reporter robust z-score: -0.4; activity call: inactive
ETS2 (ETS proto-oncogene 2, transcription factor) → TNF reporter robust z-score: -0.09; activity call: inactive
ETS2 (ETS proto-oncogene 2, transcription factor) → TNF reporter robust z-score: -0.21; activity call: inactive
ETS2 (ETS proto-oncogene 2, transcription factor) → TNF reporter robust z-score: 0.12; activity call: inactive

The listing, from the start:
ETS2 (ETS proto-oncogene 2, transcription factor) → TNF reporter robust z-score: -0.4; activity call: inactive
ETS2 (ETS proto-oncogene 2, transcription factor) → TNF reporter robust z-score: -0.09; activity call: inactive
ETS2 (ETS proto-oncogene 2, transcription factor) → TNF reporter robust z-score: -0.21; activity call: inactive
ETS2 (ETS proto-oncogene 2, transcription factor) → TNF reporter robust z-score: 0.12; activity call: inactive
MRGBP (MRG domain binding protein) → TNF reporter robust z-score: 0.57; activity call: inactive
MRGBP (MRG domain binding protein) → TNF reporter robust z-score: -1.01; activity call: inactive
MRGBP (MRG domain binding protein) → TNF reporter robust z-score: -0.65; activity call: inactive
MRGBP (MRG domain binding protein) → TNF reporter robust z-score: -0.02; activity call: inactive
PPP1R13B (protein phosphatase 1 regulatory subunit 13B) → TNF reporter robust z-score: 0.41; activity call: inactive
PPP1R13B (protein phosphatase 1 regulatory subunit 13B) → TNF reporter robust z-score: -1.1; activity call: inactive
PPP1R13B (protein phosphatase 1 regulatory subunit 13B) → TNF reporter robust z-score: 0.46; activity call: inactive
PPP1R13B (protein phosphatase 1 regulatory subunit 13B) → TNF reporter robust z-score: -0.32; activity call: inactive
NKX2-8 (NK2 homeobox 8) → TNF reporter robust z-score: -0.37; activity call: inactive
NKX2-8 (NK2 homeobox 8) → TNF reporter robust z-score: 0.72; activity call: inactive
NKX2-8 (NK2 homeobox 8) → TNF reporter robust z-score: 0.46; activity call: inactive
NKX2-8 (NK2 homeobox 8) → TNF reporter robust z-score: 1.69; activity call: inactive
NCBP3 (nuclear cap binding subunit 3) → TNF reporter robust z-score: 0.4; activity call: inactive
NCBP3 (nuclear cap binding subunit 3) → TNF reporter robust z-score: 0.09; activity call: inactive
NCBP3 (nuclear cap binding subunit 3) → TNF reporter robust z-score: -0.55; activity call: inactive
NCBP3 (nuclear cap binding subunit 3) → TNF reporter robust z-score: 0.64; activity call: inactive
CDS2 (CDP-diacylglycerol synthase 2) → TNF reporter robust z-score: 0.66; activity call: inactive
CDS2 (CDP-diacylglycerol synthase 2) → TNF reporter robust z-score: 1.01; activity call: inactive
CDS2 (CDP-diacylglycerol synthase 2) → TNF reporter robust z-score: 1.33; activity call: inactive
CDS2 (CDP-diacylglycerol synthase 2) → TNF reporter robust z-score: 0.97; activity call: inactive
SLIT3 (slit guidance ligand 3) → TNF reporter robust z-score: 2.74; activity call: inactive
SLIT3 (slit guidance ligand 3) → TNF reporter robust z-score: 0.52; activity call: inactive
SLIT3 (slit guidance ligand 3) → TNF reporter robust z-score: 1.12; activity call: inactive
SLIT3 (slit guidance ligand 3) → TNF reporter robust z-score: 2.11; activity call: inactive
NAGLU (N-acetyl-alpha-glucosaminidase) → TNF reporter robust z-score: 0.01; activity call: inactive
NAGLU (N-acetyl-alpha-glucosaminidase) → TNF reporter robust z-score: 0.02; activity call: inactive
NAGLU (N-acetyl-alpha-glucosaminidase) → TNF reporter robust z-score: 0.28; activity call: inactive
NAGLU (N-acetyl-alpha-glucosaminidase) → TNF reporter robust z-score: 1.53; activity call: inactive
ADGRG1 (adhesion G protein-coupled receptor G1) → TNF reporter robust z-score: -0.07; activity call: inactive
ADGRG1 (adhesion G protein-coupled receptor G1) → TNF reporter robust z-score: -0.36; activity call: inactive
ADGRG1 (adhesion G protein-coupled receptor G1) → TNF reporter robust z-score: 0.85; activity call: inactive
ADGRG1 (adhesion G protein-coupled receptor G1) → TNF reporter robust z-score: 0.73; activity call: inactive
MIB1 (MIB E3 ubiquitin protein ligase 1) → TNF reporter robust z-score: -0.1; activity call: inactive
MIB1 (MIB E3 ubiquitin protein ligase 1) → TNF reporter robust z-score: 2.15; activity call: inactive
MIB1 (MIB E3 ubiquitin protein ligase 1) → TNF reporter robust z-score: -0.79; activity call: inactive
MIB1 (MIB E3 ubiquitin protein ligase 1) → TNF reporter robust z-score: -0.55; activity call: inactive
ACTL9 (actin like 9) → TNF reporter robust z-score: -0.06; activity call: inactive
ACTL9 (actin like 9) → TNF reporter robust z-score: 0.33; activity call: inactive
ACTL9 (actin like 9) → TNF reporter robust z-score: 0.12; activity call: inactive
ACTL9 (actin like 9) → TNF reporter robust z-score: -0.3; activity call: inactive
AGPS (alkylglycerone phosphate synthase) → TNF reporter robust z-score: 3; activity call: active
AGPS (alkylglycerone phosphate synthase) → TNF reporter robust z-score: 1.06; activity call: inactive
AGPS (alkylglycerone phosphate synthase) → TNF reporter robust z-score: 1.39; activity call: inactive
AGPS (alkylglycerone phosphate synthase) → TNF reporter robust z-score: 3.73; activity call: active
